Experimental findings from PMC8396604 are described below.

Amino acid sequences for entries named in this document (tags omitted).
UniProt P80206: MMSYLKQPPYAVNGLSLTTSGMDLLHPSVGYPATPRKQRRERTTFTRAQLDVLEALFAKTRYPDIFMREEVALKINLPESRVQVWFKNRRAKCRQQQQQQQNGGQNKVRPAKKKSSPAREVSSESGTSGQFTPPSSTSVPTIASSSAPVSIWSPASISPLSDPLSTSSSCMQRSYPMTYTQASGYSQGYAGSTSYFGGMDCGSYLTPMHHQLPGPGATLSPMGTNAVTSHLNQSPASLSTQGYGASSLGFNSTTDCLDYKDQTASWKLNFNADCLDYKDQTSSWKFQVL

The target of the test is OTX2 homeoprotein (mouse (endogenous in adult mouse brain tissue)) (UniProt P80206). Kind of test: affinity purification with mass spectrometry; anti-OTX2 (ab21990) coupled to magnetic beads, lysate of pooled LV and 4V choroid plexus from four 3-month-old mice; 100 mM Tris pH 7.5, 1 mM EDTA, 100 mM NaCl, 1% NP40, 1 mM MgCl2, benzonase; 4 °C overnight; IgG co-IP as control; nano-LC-MS/MS; N = 3.

These are yes or no findings as the source states them, for the method shown. In cells and extracts the contact can be indirect. These calls come from enrichment with a bait or labelling near it, and not all partners need be listed.

B1: NFATC2 (protein, UniProt Q60591 1-927)
chain: MDVPEPQPDPDGGDGPGHEPGGSPQDELDFSILFDYDYLNPIEEEPIAHKAISSPSGLAYPDDVLDYGLKPCNPLASLSGEPPGRFGEPDSIGFQNFLSPVKPAGASGPSPRIEITPSHELMQAGGALRGRDAGLSPEQPALALAGVAASPRFTLPVPGYEGYREPLCLSPASSGSSASFISDTFSPYTSPCVSPNNAGPDDLCPQFQNIPAHYSPRTSPIMSPRTSLAEDSCLGRHSPVPRPASRSSSPGAKRRHSCAEALVAPLPAASPQRSRSPSPQPSPHVALQDDSIPAGYPPTAGSAVLMDALNTLATDSPCGIPSKIWKTSPDPTPVSTAPSKAGLARHIYPTVEFLGPCEQEERRNSAPESILLVPPTWPKQLVPAIPICSIPVTASLPPLEWPLSNQSGSYELRIEVQPKPHHRAHYETEGSRGAVKAPTGGHPVVQLHGYMENKPLGLQIFIGTADERILKPHAFYQVHRITGKTVTTTSYEKIVGNTKVLEIPLEPKNNMRATIDCAGILKLRNADIELRKGETDIGRKNTRVRLVFRVHVPEPSGRIVSLQAASNPIECSQRSAHELPMVERQDMDSCLVYGGQQMILTGQNFTAESKVVFMEKTTDGQQIWEMEATVDKDKSQPNMLFVEIPEYRNKHIRVPVKVNFYVINGKRKRSQPQHFTYHPVPAIKTEPSDEYEPSLICSPAHGGLGSQPYYPQHPMLAESPSCLVATMAPCQQFRSGLSSPDARYQQQSPAAALYQRSKSLSPGLLGYQQPSLLAAPLGLADAHRSVLVHAGSQGQGQGSTLPHTSSASQQASPVIHYSPTNQQLRGGGHQEFQHIMYCENFGPSSARPGPPPINQGQRLSPGAYPTVIQQQTAPSQRAAKNGPSDQKEALPTGVTVKQEQNLDQTYLDDVNEIIRKEFSGPPSRNQT
For the molecule B1, the binding result is given as “binds”.

B2: PITPNM2 (protein, UniProt Q6ZPQ6 1-1335)
chain: MIIKEYRIPLPMTVDEYRIAQLYMIQKKSRNETHGQGSGVEILENRPYTDGPGGSGQYTHKVYHVGMHIPGWFRSILPKAALRVVEESWNAYPYTRTRFTCPFVEKFSIDIETFYKTDTGENNNVFNLSPVEKSQLITDIIDIVKDPVPPSEYKTEEDPKLFQSVKTCRGPLSENWIQEYKKRLLPIMCAYKLCKVEFRYWGMQSKIERFIHDTGLRRVMVRAHRQAWCWQDEWYGLTMEKIRELEREVQLMLSRKMAQFSEEGPSELSKDSATKDQASGTTSDPGSKNGEPLGRGLKKQWSTSSKSSRSSKRGASPSRHSISEWRMQSIARDSDEGSEEEFFDAHENLYCTEEKQAKDMTKWNSNDLMDKMESPEPEESQDEIYQQSGSEFRVASSVEQLNIIEDEVSQPLAAPPSKIHVLLLVLHGGTILDTGAGDPSSKQGDTNTITNVFDTVMRVHYPSALGHLAIRLVPCPPICADAFALVSNLSPYGHDEGCLSSSQDHIPLAALPLLATSSPQYQEAVATVIQRANLAYGDFIKSQEGVTFNGQVCLIGDCVGGILAFDALCYSGQPVSESQSSSRRGSVVSMQDADLLSPGTLANAAHCSGGSGGGGSGGSSLESSRHLSRSNIDIPRSNGTEDSRRQLPRKRSDSSTYELDTIQQHQAFLSSLHASVLRNEPSSRRSSSSTMLDGAGALGKFDFEIADLFLFGCPLGLVLALRKTVIPSLDVFQLRPACQQVYNLFHPADPSASRLEPLLERRFHSLPPFSIPRYQRYPLGDGCSTLLADVLQTHNTVFQEHAAPSSPGTAPAGRGFRRASEISIASQVSGMAESYTASSIAQKGPSSLNHTPSIRRLSLLALPPPSPTTQGPRARARQVSPNLERAPCLPDLDIGEVAAKWWGQKRIDYALYCPDALTAFPTVALPHLFHASYWESTDVVSFLLRQVMRHDSSSILELDGKEVSVFTPSQPRERWQRKRTHVKLRNVAANHRINDAVANEDGPQVVTGRFMYGPLDMVTLTGEKVDVHIMTQPPSGEWLHLDTLVTNSSGRVSYTIPETHRLGVGVYPIKMVVRGDHTFADSYITVLPRGTEFVVFSIDGSFAASVSIMGSDPKVRAGAVDVVRHWQDLGYLIIYVTGRPDMQKQRVVAWLAQHNFPHGVVSFCDGLVHDPLRHKANFLKLLISELHLRAHAAYGSTKDVAVYNSISLSPMHIYIVGRPTKKLQQQCQFITDGYAAHLAQLKYNHRARPARNTATRMALRKGSFGLPGQSDFLRSRNHLLRTISAQPSGPSHRHDRTQTQMDSEQRGQRSMSVAASCWGRAMAGRLEPGAATGPK
As for B2, the binding result was “binds”.

B3: POLDIP3 (protein, UniProt Q8BG81 1-420)
chain: MADLSLDELIRKRGTAAKGRLSVRPGIGGVRSRVGIQHSLVNQPARTATFQQRFDARQKIGLSDARLKLGVKDAREKLLQKDARFRIKGKVQDAREMLNSRKQQGTVPQKPRQVADAREKISLKRRSPAAFTSPPIGTVTPALKLTKTIQVPQQKAMVPLHAHPAGMRINVVNNHQAKQNLYDLDEDDDIVVPVPPKQMKFAATGSLVHHMTGLSSSKLSMSKALPLTKVVQNDAYTAPVLPSSVRTKALTSMSRTLVNKEEPPKELPPAEPVLSPLEGTKMTVNNLHPRVTEEDIVELFCVCGALKRARLVHPGVAEVVFVKKDDAITAYKKYNNRCLDGQPMKCNLHMNGNVITSDQPILLRLSDSPSVKKESELPRRGNPASSNPPAEVDPDTVLRALFKSSGASVTTQPTEFKIKL
In the case of B3, the binding result is listed as “binds”.

B4: ARHGEF6 (protein, UniProt Q8K4I3 1-771)
chain: MNPEERLVTWLISLGVLESPKKTVCDPEEFLKSSLKNGVVLCKLINRLLPGSVEKYCLEPQTEADCIDNINDFLKGCATLQVEVFEPDDLYSGANFSKVLNTLLAVNKATEDQLSERPCGRSSSLSAATSSQTNPQVAVPSTAPEQHSEEKAEMTENGSHQLIVKARFNFKQTNEDELSVCKGDIIYVTRVEEGGWWEGTLNGRTGWFPSNYVREIKPSERPLSPKAIKGFDTAPLTKNYYTVVLQNILDTEKEYAKELQSLLVTYLRPLQSNNNLSTVEFTCLLGNFEEVCTFQQTLCQALEECSKFPENQHKVGGCLLNLMPHFKSMYLAYCANHPSAVNVLTQHSDDLERFMENQGASSPGILILTTSLSKPFMRLEKYVTLLQELERHMEDTHPDHQDILKAIIAFKTLMGQCQDLRKRKQLELQILSEPIQAWEGDDIKTLGNVIFMSQVVMQHGACEEKEERYFLLFSSVLIMLSASPRMSGFMYQGKIPIAGMVVNRLDEIEGSDCMFEITGSTVERIVVHCNNNQDFQEWMEQLNRLTKGPTSCGSLSKTSSSSCSTHSSFSSTGQPRGPLEPPQIIKPWSLSCLRPAPPLRPSAALGYKERMSYILKESSKSPKTMKKFLHKRKTERKASEEEYVIRKSTAALEEDAQILKVIEAYCTSASFQQGTRKDSVPQVLLPEEEKLIIEETRSNGQTIIEEKSLVDTVYALKDEVKELKQENKKMKQCLEEELKSRKDLEKLVRKLLKQTDECIRSESSSKTSILQ
Regarding B4, the binding result is given as “binds”.

B5: STRAP (protein, UniProt Q9Z1Z2 1-350)
chain: MAMRQTPLTCSGHTRPVVDLAFSGITPYGYFLISACKDGKPMLRQGDTGDWIGTFLGHKGAVWGATLNKDATKAATAAADFTAKVWDAVSGDELMTLAHKHIVKTVDFTQDSNYLLTGGQDKLLRIYDLNKPEAEPKEISGHTSGIKKALWCSDDKQILSADDKTVRLWDHATMTEVKSLNFNMSVSSMEYIPEGEILVITYGRSIAFHSAVSLEPIKSFEAPATINSASLHPEKEFLVAGGEDFKLYKYDYNSGEELESYKGHFGPIHCVRFSPDGELYASGSEDGTLRLWQTVVGKTYGLWKCVLPEEDSGELAKPKIGFPETAEEELEEIASENSDSIYSSTPEVKA
Regarding B5, the binding entry is on record as “binds”.

B6: RBM39 (protein, UniProt Q8VH51 1-530)
chain: MADDIDIEAMLEAPYKKDENKLNSANGHEERSKKRKKSKSRSRSHERKRSKSKERKRSRDRERKKSKSRERKRSRSKERRRSRSRSRDRRFRGRYRSPYSGPKFNSAIRGKIGLPHSIKLSRRRSRSKSPFRKDKSPVREPIDNLTPEERDARTVFCMQLAARIRPRDLEEFFSTVGKVRDVRMISDRNSRRSKGIAYVEFVDVSSVPLAIGLTGQRVLGVPIIVQASQAEKNRAAAMANNLQKGSAGPMRLYVGSLHFNITEDMLRGIFEPFGRIESIQLMMDSETGRSKGYGFITFSDSECAKKALEQLNGFELAGRPMKVGHVTERTDASSASSFLDSDELERTGIDLGTTGRLQLMARLAEGTGLQIPPAAQQALQMSGSLAFGAVAEFSFVIDLQTRLSQQTEASALAAAASVQPLATQCFQLSNMFNPQTEEEVGWDTEIKDDVIEECNKHGGVIHIYVDKNSAQGNVYVKCPSIAAAIAAVNALHGRWFAGKMITAAYVPLPTYHNLFPDSMTATQLLVPSRR
As to B6, the binding entry was “binds”.
